The target of the experiment is endogenous NEMO (human (endogenous in C8166 and MT-2)) (UniProt Q9Y6K9). Put plainly: co-IP; endogenous proteins, lysates of C8166 and MT-2 cells; RIPA buffer; IP with control IgG, anti-UBE4B, anti-NEMO or anti-Tax, overnight at 4°C; immunoblot. In general terms: Immunoblotting shows a protein as a band on a membrane.

Results are given in words; binding and its absence hold for the method and conditions named. Binding seen in cells or lysates may run through a third protein. Some entries that bind do so weakly or less than the wild type.

Regarding “endogenous HTLV-1 Tax of HTLV-1-transformed cell lines (from UniProt P03409 1-353)”, the binding result was “binds”.

The values above are taken from article PMC7790423.
